This sample is rich in variants without activity.

B1: tRNA (parent)
chain: GUUCCGUUGGCGUAAUGGUAACGCGUCUCCCUCCUAAGGAGAAGACUGCGGGUUCGAGUCCCGUACGGAACG

Variants of B1 are the subject of this data set. Kind of data set: yeast fitness relative to wild type (ratio to wild type); higher = fitter; tRNA-Arg(CCU), competitive growth, 37 C, YPD. The method in brief: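 Genotype frequency changes were the basis for Darwinian fitness relative to wild type. The frequencies came from 100-nucleotide paired-end sequencing of gene amplicons from the start population and each end population of pooled yeast strains with tRNA-Arg(CCU) gene variants at the native locus. Competition ran in YPD at 37°C for 24 hours in six replicates, genotypes needed ≥ 100 starting reads, and estimates < 0.5 were set to 0.5.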
Consider U3A C24G A57U, for which the yeast fitness was not above 0.5. Next, U7A U16C G17A C34G A45C G52C: not above 0.5; U8A G18A A21U U28A C30G: not above 0.5; C4U C5A C29A C30G G38U: not above 0.5. U2C C11A C22G C46U U53G A57C: the yeast fitness is not above 0.5. G10A C22U A69C: the yeast fitness is not above 0.5. Next, A14C U64C A69C: not above 0.5. For the variant A36U A43C C49A C55G, the yeast fitness is not above 0.5. The figure for C4U C5G C29G C31G A37C U54A is not above 0.5; for U2A G6A C11G C46U A57C it is not above 0.5; for C4U U8A C30U G51C it is not above 0.5. Take U3A C24U G39A C62A: the yeast fitness was not above 0.5. Consider U3A A14U C66U, for which the yeast fitness was not above 0.5. The figure for G50C U54A is 0.524; for C34A A40U A43G C62U it is not above 0.5; for C11A C33U A65G C66U it is not above 0.5.

Regarding U16A G18A C31U A65G, the yeast fitness came out at 0.548. Next, U7G U26C C61U G63C: not above 0.5; C4G G23C C66A: not above 0.5. Next, U16A G41A A70U: 0.666; C5A G10C U26C A40U A42C G67A: not above 0.5. The figure for U8C A20C C27G C46A G50A is not above 0.5; for C4A C29U A37G G39C C49U it is not above 0.5; for A14G G18C C29G G56C C66U it is not above 0.5. For the variant C22A G48A, the yeast fitness came out at 0.826. Next, G17A A21C C29U: not above 0.5. Next, C34U G63A C66U: not above 0.5. The figure for C11G C22A C31A is not above 0.5; for A20G A40C A42U A43C G48A A70C it is not above 0.5; for G10C A36U A42G G56A U59G it is not above 0.5. U7A G12A: the yeast fitness stood at 0.783. The figure for A37U A42G G51A is not above 0.5. Next, C5U G17C A21U A40G U47G G48C C60G: not above 0.5; G9C G12C A14G A20C C61A A69U: not above 0.5.

As to C30U U32A A36U A37U C62U, the yeast fitness is not above 0.5. The figure for G6A G9C C27A C31A C49G is not above 0.5. Next, C22U C27U C29U: not above 0.5; G10A U13A C24A: 0.582. Next, G18C C29U C55G G67U: not above 0.5.

As for U3C G9C C11U U19C C30G A43C, the yeast fitness is not above 0.5. Regarding U8C C24G G38C U53G A57G, the yeast fitness was not above 0.5. Next, C11A A36G G52A: not above 0.5. Next, U13C C30A C31U A36G G50A A65G C66U: not above 0.5. With G6A C49U G58A, the yeast fitness turned out to be 0.654. U2C C22G C31U C60U C61U C66G: the yeast fitness was not above 0.5. The figure for C27U C33U G48C is not above 0.5; for G6A C33G C34G G56A C61A it is not above 0.5. The figure for C27U C33U C66U is 0.536. Next, C4G G25U U64G: not above 0.5; C4A C5U G17A G39A G52C: not above 0.5. With U19A C22G A70U, the yeast fitness came out at 0.509. On to G18A G44A, for which the yeast fitness amounted to 0.637. Next, C31G A42C G56A C61G: not above 0.5.

Consider A45G A57G C60U G68C, for which the yeast fitness is not above 0.5.

The record behind these values is the RNAGym collection of RNA variant scans (doi:10.1126/science.aae0568).
